Negatives hold for the conditions tested. At least one verdict rests on a figure or table, not on a statement of the authors. For some of these results: Construct, isoform or probe ends are uncertain for at least one entry. For some of these results: Weaker means in comparison with the reference protein, sequence or condition of that experiment.
Key:
Assay in all cases: ELASA
etanercept (Enbrel) = etanercept (Enbrel) (UniProt P20333); conditions: 20 mM Tris-HCl pH 7.6, 100 mM NaCl, 2 mM MgCl2, 5 mM KCl, 1 mM CaCl2, 0.02% Tween 20, SAW at 22 C (protein A chip-captured rituximab), ELASA at room temperature, 2 h, commercial protein, label: 5'-biotin in ELASA
Fc/2, non-glycosylated = conditions: 20 mM Tris-HCl pH 7.6, 100 mM NaCl, 2 mM MgCl2, 5 mM KCl, 1 mM CaCl2, 0.02% Tween 20, SAW at 22 C (protein A chip-captured rituximab), ELASA at room temperature, 2 h, recombinant protein, label: 5'-biotin in ELASA
[1] = target: rituximab Fc, glycosylated (FabRICATOR/IdeS digest, FragIT) (UniProt P01857); conditions: 20 mM Tris-HCl pH 7.6, 100 mM NaCl, 2 mM MgCl2, 5 mM KCl, 1 mM CaCl2, 0.02% Tween 20, SAW at 22 C (protein A chip-captured rituximab), ELASA at room temperature, 2 h, commercial protein, label: 5'-biotin in ELASA
[2] = 25 nM aptamer, single-stranded DNA
[3] = 50 nM aptamer, single-stranded DNA
[4] = 50 nM aptamer, folded or branched DNA

The chains behind the UniProt entries cited, without tags or fusion partners. Where a name states a change or a piece, a line headed by the entry shows the natural chain unless it says otherwise.
UniProt P20333: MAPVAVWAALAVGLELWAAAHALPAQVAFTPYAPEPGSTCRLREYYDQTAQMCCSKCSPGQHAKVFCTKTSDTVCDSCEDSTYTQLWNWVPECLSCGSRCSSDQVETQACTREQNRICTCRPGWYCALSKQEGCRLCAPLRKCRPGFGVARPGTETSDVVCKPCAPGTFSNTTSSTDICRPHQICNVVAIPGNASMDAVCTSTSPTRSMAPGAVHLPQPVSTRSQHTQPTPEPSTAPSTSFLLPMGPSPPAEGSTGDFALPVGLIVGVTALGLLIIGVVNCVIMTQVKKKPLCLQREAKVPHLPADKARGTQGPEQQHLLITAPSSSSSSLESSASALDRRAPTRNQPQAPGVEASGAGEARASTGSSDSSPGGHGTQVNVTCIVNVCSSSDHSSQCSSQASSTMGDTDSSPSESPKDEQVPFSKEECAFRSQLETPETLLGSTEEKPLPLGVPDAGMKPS

## TATACTGGGCCGTGCGTGACTTTTCCGTGCTGCATGAGAG [RA4]
Etanercept (Enbrel); [2]
  binding result: no binding
Fc/2, non-glycosylated; [2]
  binding result: no binding
[1]; [2]
  binding result: no binding

## TGGGGGTAGGATTGTGGTTGGCTTTAATTGCTTTGGTGGT [RA2]
Etanercept (Enbrel); [2]
  binding result: no binding
Fc/2, non-glycosylated; [2]
  binding result: no binding
[1]; [2]
  binding result: no binding

## CGGCGGGGGGAGGATTGTGGTCTGCTCATGGCTGCCGTTT [RA1]
Etanercept (Enbrel); [3]
  binding result: no binding
Fc/2, non-glycosylated; [3]
  binding result: no binding
[1]; [3]
  binding result: no binding

## GGGGGTGAGGATTGTGGTTTGGCTTATTGGTTTGCTGGTG [RA3]
Etanercept (Enbrel); [4]
  binding result: no binding
Fc/2, non-glycosylated; [4]
  binding result: no binding
[1]; [4]
  binding result: no binding

## GGCCGGTAGATGGGGAATCGGTTTCGGTGGGGCTAGGGAC [RA5]
Etanercept (Enbrel); [3]
  binding result: no binding
Fc/2, non-glycosylated; [3]
  binding result: no binding
[1]; [3]
  binding result: no binding

## CGTGGGTGGGGATTGTGGTTTGGCTGATGGGGTGCTGGTT [RA6]
[1]; 50 nM aptamer, low but positive, folded or branched DNA
  binding result: binds more weakly
